{
  "source": "PubChem BioAssay AID504467",
  "about": "(National Center for Advancing Translational Sciences (NCATS), 2011)",
  "note": "Out of some 330,000 compounds screened, about 7,700 (2.3%) were called active. The shares of active, inactive and inconclusive entries below differ from those in the screen. Calls follow the shape of the dose curve; as a rule, active = well fitted inhibition curve with a large enough effect; inconclusive = small, poorly fitted or top-dose-only effect, or effect the other way; inactive = flat fitted curve, though single readings scatter. A potency beside an inconclusive call is a rough fit, not a confirmed value. % is scaled to controls: 0 for no effect and ±100 for the full control effect; potency is read from the fitted curve at half-maximal effect.",
  "data": [
    {"experiment": "qHTS screen for small molecules that inhibit ELG1-dependent DNA repair in human embryonic kidney (HEK293T) cells expressing luciferase-tagged ELG1; also: nearly all actives have a fitted effect of over 55% in size", "settings": "HEK293T ELG1-luciferase reporter, luminescence, 16 h, DNA damage induced by 5-fluorouridine; activity change, negative = inhibition: at 46.1 µM (top of the series)", "in_short": "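HEK293T cells expressing luciferase-tagged ELG1 (2,000/well) received 5-Fluorouridine plus compound or DMSO for 16 hr at 37 °C. Luciferase was read by ONE-Glo luminescence after 30 min at room temperature.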", "values": [
      {"smiles": "CCCC1=Nc2cc(C(=O)NCCCOCC)ccc2Sc2ccccc21", "activity change, negative = inhibition": "inactive: -14.5%"},
      {"smiles": "CN(C)C(CNC(=O)C1CCN(C(=O)/C=C/c2ccccc2)CC1)c1ccccc1", "note": "(centres undefined)", "Potency": "inconclusive: 11.6 µM [activator, partial curve]"},
      {"smiles": "CCOC(=O)c1c(N)n(CC(C)NC(=O)C2CC2)c2nc3ccccc3nc12", "note": "(centres undefined)", "Potency": "inconclusive: 20.6 µM [inhibitor, partial curve]"},
      {"smiles": "CCOCc1c(C(=O)N2CCN(Cc3ccc(Br)s3)CC2)oc2ccccc12", "activity change, negative = inhibition": "inactive: -5.2%"},
      {"smiles": "Cc1ccc(NC(=O)c2nc[nH]c2C(=O)N2CCC(C)CC2)cc1", "activity change, negative = inhibition": "inactive: -2.21%"},
      {"smiles": "COc1ccc(C(=O)N2CCN(c3ccc([N+](=O)[O-])c(-n4nc(C)cc4C)c3)CC2)cc1", "activity change, negative = inhibition": "inactive: -4.79%"},
      {"smiles": "CC(CCc1ccccc1)NC(=O)COc1ccc(S(=O)(=O)N2CCOCC2)cc1[N+](=O)[O-]", "note": "(centres undefined)", "activity change, negative = inhibition": "inactive: -23.7%"},
      {"smiles": "COC(=O)c1ccccc1NC(=O)c1cccc(NC(=O)C(C)C)c1", "Potency": "inconclusive: 18.3 µM [inhibitor, single point]"},
      {"smiles": "COc1ccc(Nc2ccc(S(=O)(=O)N3CCCCC3)cc2[N+](=O)[O-])cc1OC", "Potency": "inconclusive: 25.9 µM [inhibitor, partial curve, poor fit]"},
      {"smiles": "COc1ccccc1CNC(=O)C1CCC(CNS(=O)(=O)c2ccc(NC(C)=O)cc2)CC1", "note": "(centres undefined)", "activity change, negative = inhibition": "inactive: -0.943%"},
      {"smiles": "c1nc(C2CCCCC2)cc2cc3c(cc12)OCO3", "Potency": "inconclusive: 18.3 µM [activator, partial curve]"},
      {"smiles": "CCOC(=O)C1=C(C)Nc2sc(C(=O)c3ccc(C)cc3)c(N)c2C1c1ccc(C(=O)OC)cc1", "note": "(centres undefined)", "Potency": "inconclusive: 4.11 µM [inhibitor, partial curve, poor fit]"},
      {"smiles": "O=C(Nc1ccccc1)C1Cc2ccccc2CN1C(=O)c1ccco1", "note": "(centres undefined)", "Potency": "inconclusive: 20.6 µM [activator, partial curve]"},
      {"smiles": "O=C(/C=C/c1cccc([N+](=O)[O-])c1)N1CCN(c2ccc(F)cc2)CC1", "activity change, negative = inhibition": "inactive: 0.124%"},
      {"smiles": "Cc1ccc(S(=O)(=O)N2CCCCC2)cc1NC(=O)CNCc1ccco1", "activity change, negative = inhibition": "inactive: -6.56%"},
      {"smiles": "Cc1ccc(C)n1-c1ccc(N(C)C)cc1", "Potency": "inconclusive: 16.4 µM [activator, partial curve]"},
      {"smiles": "CCN(CC)C(=O)c1sc(NC(=S)N2CCN(C(=O)C3CCCO3)CC2)c(C(=O)OC)c1C", "note": "(centres undefined)", "Potency": "inconclusive: 23.1 µM [inhibitor, partial curve, poor fit]"},
      {"smiles": "CC1(c2nnc(-c3ccncc3)o2)CC(c2ccc([N+](=O)[O-])cc2)=NO1", "note": "(centres undefined)", "Potency": "active: 20.6 µM"},
      {"smiles": "CCN1CCCC1CNC(=O)c1ccc2c(c1)NC(=O)/C(=C\\c1ccc(OC)c(OC)c1)S2", "note": "(centres undefined)", "Potency": "inconclusive: 8.2 µM [activator, partial curve]"},
      {"smiles": "CCOCCN(C(=O)c1ccccc1Cl)c1ccccc1", "Potency": "inconclusive: 23.1 µM [activator, single point]"},
      {"smiles": "c1ccc(N2CCCCC2)c(Nc2nc3ccccc3n3cnnc23)c1", "Potency": "inconclusive: 25.9 µM [inhibitor, single point]"},
      {"smiles": "Nc1c(-c2ccccc2)cnc2cc(-c3ccccc3)nn12", "Potency": "inconclusive: 2.31 µM [activator, full curve]"},
      {"smiles": "O=C(CC12CC3CC(C1)CC(CC(=O)NC1=NCCS1)(C3)C2)NC1=NCCS1", "activity change, negative = inhibition": "inactive: -1.1%"},
      {"smiles": "O=C(COc1ccc2ccccc2c1Br)N1CCN(c2ccccn2)CC1", "Potency": "inconclusive: 32.6 µM [inhibitor, single point]"},
      {"smiles": "COc1ccc(-c2nn(-c3ccccc3)cc2C(=O)NC(=S)Nc2cc(Cl)ccc2Cl)cc1", "Potency": "inconclusive: 29.1 µM [inhibitor, single point]"},
      {"smiles": "CCN(CC)S(=O)(=O)c1ccc(C(=O)NCCc2ccccn2)cc1", "Potency": "inconclusive: 25.9 µM [activator, single point]"},
      {"smiles": "O=S(=O)(c1ccccc1)c1nc(-c2ccccc2Cl)oc1NCCN1CCOCC1", "Potency": "inconclusive: 29.1 µM [inhibitor, single point]"},
      {"smiles": "CC(=S)/C=C1\\Sc2ccccc2N1C", "Potency": "inconclusive: 29.1 µM [activator, single point]"},
      {"smiles": "Cc1ccc(C)c(N2CCN(S(=O)(=O)c3c(C(=O)N4CCCCC4)c(C)n(C)c3C)CC2)c1", "Potency": "inconclusive: 20.6 µM [inhibitor, partial curve]"},
      {"smiles": "CN(C(=O)c1cccnc1)c1nnc(-c2cccnc2)s1", "activity change, negative = inhibition": "inactive: 19.4%"},
      {"smiles": "Cc1cccnc1NC(=O)C(C)Oc1ccccc1", "note": "(centres undefined)", "activity change, negative = inhibition": "inactive: 0%"},
      {"smiles": "CC1CN(c2ccc(NC(=S)Nc3ccc(N4CC(C)OC(C)C4)cc3)cc2)CC(C)O1", "note": "(centres undefined)", "activity change, negative = inhibition": "inactive: -6.22%"},
      {"smiles": "CCN(CC(=O)NC(=O)NCc1ccco1)Cc1nc2ccccc2c(=O)[nH]1", "activity change, negative = inhibition": "inactive: -3.49%"},
      {"smiles": "COc1cccc(N2CCN(c3ncnc4c3[nH]c3ccc(F)cc34)CC2C)c1", "note": "(centres undefined)", "Potency": "inconclusive: 4.61 µM [inhibitor, full curve]"},
      {"smiles": "O=C(Nc1ccc(Cl)cc1)c1ccc(OCC2CCCO2)cc1", "note": "(centres undefined)", "Potency": "inconclusive: 3.26 µM [activator, partial curve, poor fit]"},
      {"smiles": "Cc1cccc(Nc2nc(-c3ccc4c(c3)OCCO4)cs2)c1", "Potency": "inconclusive: 2.06 µM [activator, full curve]"},
      {"smiles": "COc1ccc(-c2oc(=O)c3cc(OC)c(OC)cc3c2C#CCCO)cc1", "Potency": "active: 16.4 µM"},
      {"smiles": "COc1cc(/C=C2\\CC(C(C)(C)C)C/C(=C\\c3cc(OC)c(OC)c(OC)c3)C2=O)cc(OC)c1OC", "note": "(centres undefined)", "Potency": "inconclusive: 7.3 µM [inhibitor, partial curve, poor fit]"},
      {"smiles": "O=c1c2c(nc3n1CCCCC3)sc1c(O)c(Br)ccc12", "Potency": "inconclusive: 2.91 µM [activator, partial curve]"},
      {"smiles": "COC(=O)Cc1c(C)c2ccc(OCC(C)=O)c(C)c2oc1=O", "Potency": "inconclusive: 4.61 µM [activator, partial curve]"},
      {"smiles": "COc1ccc(CCNC(=O)Cn2c(=O)n(CC3CCCO3)c(=O)c3cc(OC)c(OC)cc32)cc1OC", "note": "(centres undefined)", "Potency": "inconclusive: 29.1 µM [inhibitor, partial curve, poor fit]"},
      {"smiles": "Brc1ccc(/C=N/Nc2nc3ccccc3o2)cc1", "Potency": "inconclusive: 7.3 µM [activator, partial curve]"},
      {"smiles": "O=C1c2cccc3cccc(c23)C(=O)N1OS(=O)(=O)c1ccc(Br)cc1", "activity change, negative = inhibition": "inactive: 12.3%"},
      {"smiles": "CCN(CC)S(=O)(=O)c1cccc(-c2nnc(SCCOc3ccccc3C)o2)c1", "Potency": "inconclusive: 13 µM [inhibitor, partial curve]"},
      {"smiles": "O=C(c1cccs1)N1CCN(Cc2cn[nH]c2-c2ccc(F)cc2F)CC1", "activity change, negative = inhibition": "inactive: -20.7%"},
      {"smiles": "Cc1ccnc(NC(c2cccnc2)c2ccc3cccnc3c2O)c1", "note": "(centres undefined)", "Potency": "inconclusive: 23.1 µM [inhibitor, partial curve]"},
      {"smiles": "Cc1cc(C(=O)NN=C(Cc2ccccc2)Cc2ccccc2)c(C)o1", "activity change, negative = inhibition": "inactive: -0.889%"},
      {"smiles": "COc1ccccc1CC(=O)N1CCN(c2ccccn2)CC1", "Potency": "inconclusive: 25.9 µM [activator, partial curve, poor fit]"},
      {"smiles": "CN1CCN(CCCNC(=O)CCN2C(=O)COc3ccccc32)CC1", "Potency": "inconclusive: 20.6 µM [activator, partial curve, poor fit]"},
      {"smiles": "CCn1c(CNc2ccc(C)cc2C)nnc1SCC(=O)N1CCCc2ccccc21", "Potency": "inconclusive: 29.1 µM [inhibitor, single point]"},
      {"smiles": "O=c1oc(Cc2ccccc2)nc2ccccc12", "Potency": "inconclusive: 29.1 µM [activator, single point]"},
      {"smiles": "Cc1cccc(/C=N/NC(=O)c2ccc(NC(=O)c3ccc(F)cc3)cc2)n1", "activity change, negative = inhibition": "inactive: 3.66%"},
      {"smiles": "O=C(Nc1nc(-c2cc(Cl)sc2Cl)cs1)c1cccs1", "activity change, negative = inhibition": "inactive: 14.7%"},
      {"smiles": "CC(=C\\c1ccccc1)/C=C1/SC(=S)N(C(C(=O)O)C(C)C)C1=O", "note": "(centres undefined)", "activity change, negative = inhibition": "inactive: 4.45%"},
      {"smiles": "COc1cc2c(cc1OC)CN(C(=O)c1ccc(S(=O)(=O)N3CCCCC3)cc1)CC2", "Potency": "inconclusive: 23.1 µM [inhibitor, partial curve, poor fit]"},
      {"smiles": "O=C(NCC1CCCO1)c1sc2cc(Cl)ccc2c1Cl", "note": "(centres undefined)", "Potency": "inconclusive: 11.6 µM [activator, partial curve]"},
      {"smiles": "Nc1ccc(N=Nc2ccc(N)cc2)cc1", "Potency": "inconclusive: 16.4 µM [activator, partial curve]"},
      {"smiles": "O=C(NCCNc1ccc([N+](=O)[O-])cc1)c1ccco1", "activity change, negative = inhibition": "inactive: 12.8%"},
      {"smiles": "COc1ccc(NS(=O)(=O)c2ccc(C)c(NC(=O)c3ccc(C)c(S(=O)(=O)N4CCOCC4)c3)c2)cc1", "Potency": "inconclusive: 29.1 µM [inhibitor, single point]"},
      {"smiles": "CC(=O)NC(CSc1cc(C)nc2ccc(Br)cc12)C(=O)O", "note": "(centres undefined)", "Potency": "inconclusive: 16.4 µM [inhibitor, single point]"},
      {"smiles": "Cn1c(=O)[nH]c(=O)c2c1nc(CN1CCOCC1)n2CCCO", "Potency": "inconclusive: 6.31 µM [inhibitor, single point]"},
      {"smiles": "CCOC(=O)c1cnn(-c2cc(Oc3ccccc3C)ncn2)c1N", "activity change, negative = inhibition": "inactive: -6.28%"},
      {"smiles": "Cc1[nH]c2ccccc2c1/C=N/Nc1ccccc1[N+](=O)[O-]", "Potency": "inconclusive: 20.6 µM [activator, single point]"},
      {"smiles": "C/C(=N\\NC(=S)Nc1cc(S(=O)(=O)N2CCOCC2)ccc1Cl)c1ccc(N2CCOCC2)cc1", "Potency": "inconclusive: 13 µM [inhibitor, partial curve, poor fit]"},
      {"smiles": "O=C(CN1CCN(S(=O)(=O)c2ccc(Br)cc2)CC1)N/N=C/c1cc([N+](=O)[O-])ccc1Cl", "Potency": "inconclusive: 25.9 µM [inhibitor, single point]"},
      {"smiles": "Cc1nc2oc3ccc(F)cc3c(=O)c2cc1C(=O)O", "Potency": "inconclusive: 18.3 µM [activator, partial curve]"},
      {"smiles": "COc1ccc(C2Nc3ccccc3C(=O)N2c2ccccc2)cc1COc1ccccn1", "note": "(centres undefined)", "Potency": "inconclusive: 11.6 µM [activator, single point]"},
      {"smiles": "CCn1c(COc2ccccc2C)nnc1SCC(=O)O", "activity change, negative = inhibition": "inactive: 2.72%"},
      {"smiles": "COc1ccc2nc(SCC(=O)NCc3ccc(OC)c(OC)c3)[nH]c2c1", "activity change, negative = inhibition": "inactive: -0.116%"}
    ]}
  ]
}
